In article PMC11081805:
Substitutions are numbered along the chain they refer to. In names and notes the source's numbering stands. No constants are given. Whether binding was seen depends on the method and setting. Binding seen in cells or lysates may run through a third protein. Some results given as binding are weak or reduced against the parent protein; the word gives no strength. For part of these data: Where a sequence is shown, tags or fusion partners need not be part of it. One block for each molecule: values may come before it.

Sequences of proteins named here, by UniProt entry; tags and fusion partners are left off.
UniProt P53779: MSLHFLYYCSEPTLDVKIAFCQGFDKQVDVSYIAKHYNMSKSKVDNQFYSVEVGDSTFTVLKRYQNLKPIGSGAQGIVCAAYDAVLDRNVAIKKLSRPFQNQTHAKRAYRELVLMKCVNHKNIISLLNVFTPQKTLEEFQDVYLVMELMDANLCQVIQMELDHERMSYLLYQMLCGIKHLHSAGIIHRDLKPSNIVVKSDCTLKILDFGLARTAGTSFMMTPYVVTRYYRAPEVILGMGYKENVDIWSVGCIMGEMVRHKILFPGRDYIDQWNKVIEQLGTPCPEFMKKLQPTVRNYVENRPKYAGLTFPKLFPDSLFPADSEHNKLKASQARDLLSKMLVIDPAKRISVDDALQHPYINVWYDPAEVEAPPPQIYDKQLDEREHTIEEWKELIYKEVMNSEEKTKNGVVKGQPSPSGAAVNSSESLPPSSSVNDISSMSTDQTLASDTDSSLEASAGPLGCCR

Key:
[1] = molecular target: MYC-GluK2 (full-length kainate receptor subunit GluK2) (mouse) (UniProt P39087); experiment: co-IP; HEK293T cells co-expressing full-length MYC-GluK2 and EGFP-JNK3; MYC-IP; lysis buffer 50 mM Tris-HCl pH 7.5, 100 mM NaCl, 1% Triton-X; mouse IgG as negative control
[2] = molecular target: T1, FLAG-SAP102 (FLAG-tagged WT SAP102) (human) (UniProt Q92796); experiment: co-IP; HEK293T cells co-expressing FLAG-SAP102, JNK3-V5 and EGFP-GluK2-cyto-short (841-882, PDZ ligand deleted); precipitating antibody not given; lysis buffer 50 mM Tris-HCl pH 7.5, 100 mM NaCl, 0.1% Triton-X
T1 sequence: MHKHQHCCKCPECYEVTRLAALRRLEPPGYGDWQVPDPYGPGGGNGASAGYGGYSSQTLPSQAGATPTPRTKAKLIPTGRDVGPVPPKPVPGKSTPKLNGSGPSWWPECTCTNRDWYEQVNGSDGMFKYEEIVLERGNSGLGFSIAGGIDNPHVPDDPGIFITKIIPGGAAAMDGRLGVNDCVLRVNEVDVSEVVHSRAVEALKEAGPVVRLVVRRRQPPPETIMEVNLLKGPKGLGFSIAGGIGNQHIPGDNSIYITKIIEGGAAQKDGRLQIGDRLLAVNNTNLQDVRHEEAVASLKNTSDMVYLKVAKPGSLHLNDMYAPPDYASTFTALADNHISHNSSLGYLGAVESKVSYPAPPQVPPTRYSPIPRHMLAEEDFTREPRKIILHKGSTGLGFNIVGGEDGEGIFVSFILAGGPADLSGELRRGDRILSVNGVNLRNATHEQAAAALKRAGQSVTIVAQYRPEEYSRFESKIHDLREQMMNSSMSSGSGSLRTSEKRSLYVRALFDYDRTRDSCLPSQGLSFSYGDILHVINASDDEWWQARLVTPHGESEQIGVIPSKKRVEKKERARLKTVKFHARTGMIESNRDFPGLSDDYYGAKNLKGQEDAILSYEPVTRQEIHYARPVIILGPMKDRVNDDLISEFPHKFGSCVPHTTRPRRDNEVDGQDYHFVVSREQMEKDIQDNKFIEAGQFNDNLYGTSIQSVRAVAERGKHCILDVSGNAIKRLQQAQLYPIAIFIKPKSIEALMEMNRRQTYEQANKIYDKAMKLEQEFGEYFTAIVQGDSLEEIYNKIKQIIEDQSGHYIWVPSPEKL

[3] = molecular target: T1, FLAG-SAP102 (FLAG-tagged WT SAP102) (human); experiment: co-IP; HEK293T cells co-expressing FLAG-SAP102, JNK3-V5 and EGFP-GluK2-cyto (intact PDZ ligand); precipitating antibody not given; lysis buffer 50 mM Tris-HCl pH 7.5, 100 mM NaCl, 0.1% Triton-X
[4] = molecular target: T2, EGFP-GluK2-cytoINT (cytoplasmic GluK2 C terminus with phospho-mimicking mutations S846E and S868E) (mouse) (UniProt P39087); experiment: co-IP; HEK293T cells co-expressing EGFP-GluK2-cyto or EGFP-GluK2-cytoINT and JNK3-V5; GFP-IP, blot with anti-V5; lysis buffer 50 mM Tris-HCl pH 7.5, 100 mM NaCl, 0.1% Triton-X; mouse IgG as negative control
T2 sequence: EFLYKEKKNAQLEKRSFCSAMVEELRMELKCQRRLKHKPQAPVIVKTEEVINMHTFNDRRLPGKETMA

[5] = molecular target: T3, EGFP-GluK2-cyto (cytoplasmic C-terminal tail of GluK2) (mouse) (UniProt P39087); experiment: as above
T3 sequence: T2 sequence with E6S, E28S

[6] = molecular target: T3, EGFP-GluK2-cyto (cytoplasmic C-terminal tail of GluK2) (mouse); experiment: co-IP; CHL cells co-expressing FLAG-SAP102 (WT or S368A) and EGFP-GluK2-cyto; GFP-IP (2 ug antibody, Protein G Agarose), blot with anti-FLAG; mouse IgG as negative control; lysis buffer 50 mM Tris-HCl pH 7.5, 100 mM NaCl, 0.1% Triton-X
[7] = molecular target: T3, EGFP-GluK2-cyto (cytoplasmic C-terminal tail of GluK2) (mouse); experiment: co-IP; Fig. S6 (not shown): GluK2 cytosolic region with SAP102; cells, constructs and antibody not given
[8] = molecular target: T3, EGFP-GluK2-cyto (cytoplasmic C-terminal tail of GluK2) (mouse); experiment: co-IP; HEK293T cells co-expressing FLAG-SAP102, JNK3-V5 and EGFP-GluK2-cyto (intact PDZ ligand); precipitating antibody not given; lysis buffer 50 mM Tris-HCl pH 7.5, 100 mM NaCl, 0.1% Triton-X

- binding [1]: binds
Molecule: EGFP-JNK3 (from UniProt P53779 1-464) (enzyme)

- binding [2]: binds weakly
- binding [3]: binds
- binding [4]: binds
- binding [5]: binds
Molecule: JNK3-V5 (from UniProt P53779 1-464) (enzyme)

- binding [6]: binds
- binding [7]: binds
- binding [8]: binds
B1: FLAG-SAP102 (FLAG-tagged WT SAP102) (protein, UniProt Q92796 1-817)
chain: T1 sequence

- binding [6]: binds
B2: FLAG-SAP102-S368A (phospho-deficient SAP102 variant) (protein, UniProt Q92796 1-817)
chain: T1 sequence with S368A
